Results are given in words; binding and its absence hold for the method and conditions named. Binding seen in cells or lysates may run through a third protein. Some binding calls cover weakened binding; strength is not graded here. Sequences can lack the tags named with a protein.
T1: Rif2-Myc (S. cerevisiae) (UniProt Q06208)
T1 sequence: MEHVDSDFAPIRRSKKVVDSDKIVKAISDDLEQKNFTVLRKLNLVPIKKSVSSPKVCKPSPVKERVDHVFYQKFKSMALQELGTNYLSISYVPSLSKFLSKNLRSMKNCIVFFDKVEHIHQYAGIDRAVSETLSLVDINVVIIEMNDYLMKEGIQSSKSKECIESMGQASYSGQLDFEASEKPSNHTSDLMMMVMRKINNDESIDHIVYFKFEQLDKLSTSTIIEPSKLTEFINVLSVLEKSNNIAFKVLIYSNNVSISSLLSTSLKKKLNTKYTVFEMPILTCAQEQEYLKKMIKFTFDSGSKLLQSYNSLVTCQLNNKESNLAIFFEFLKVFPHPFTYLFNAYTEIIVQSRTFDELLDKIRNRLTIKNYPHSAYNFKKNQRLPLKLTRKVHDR


Molecular target: T1, Rif2-Myc (S. cerevisiae)
Assay: co-IP; protein extracts of exponentially growing xrs2Δ S. cerevisiae cells; IP with anti-Myc antibody, western blots with anti-HA and anti-Myc; lysis buffer 50 mM HEPES pH 7.5, 140 mM NaCl, 1 mM EDTA, 10% glycerol, 0.5% NP40

Binder | binding
Rad50-HA (protein, UniProt P12753 1-1312) MSAIYKLSIQGIRSFDSNDRETIEFGKPLTLIVGMNGSGKTTIIECLKYATTGDLPPNSKGGVFIHDPKITGEKDIRAQVKLAFTSANGLNMIVTRNIQLLMKKTTTTFKTLEGQLVAINNSGDRSTLSTRSLELDAQVPLYLGVPKAILEYVIFCHQEDSLWPLSEPSNLKKKFDEIFQAMKFTKALDNLKSIKKDMSVDIKLLKQSVEHLKLDKDRSKAMKLNIHQLQTKIDQYNEEVSEIESQLNEITEKSDKLFKSNQDFQKILSKVENLKNTKLSISDQVKRLSNSIDILDLSKPDLQNLLANFSKVLMDKNNQLRDLETDISSLKDRQSSLQSLSNSLIRRQGELEAGKETYEKNRNHLSSLKEAFQHKFQGLSNIENSDMAQVNHEMSQFKAFISQDLTDTIDQFAKDIQLKETNLSDLIKSITVDSQNLEYNKKDRSKLIHDSEELAEKLKSFKSLSTQDSLNHELENLKTYKEKLQSWESENIIPKLNQKIEEKNNEMIILENQIEKFQDRIMKTNQQADLYAKLGLIKKSINTKLDELQKITEKLQNDSRIRQVFPLTQEFQRADLEMDFQKLFINMQKNIAINNKKMHELDRRYTNALYNLNTIEKDLQDNQKSKEKVIQLLSENLPEDCTIDEYNDVLEETELSYKTALENLKMHQTTLEFNRKALEIAERDSCCYLCSRKFENESFKSKLLQELKTKTDANFEKTLKDTVQNEKEYLHSLRLLEKHIITLNSINEKIDNSQKCLEKAKEETKTSKSKLDELEVDSTKLKDEKELAESEIRPLIEKFTYLEKELKDLENSSKTISEELSIYNTSEDGIQTVDELRDQQRKMNDSLRELRKTISDLQMEKDEKVRENSRMINLIKEKELTVSEIESSLTQKQNIDDSIRSKRENINDIDSRVKELEARIISLKNKKDEAQSVLDKVKNERDIQVRNKQKTVADINRLIDRFQTIYNEVVDFEAKGFDELQTTIKELELNKAQMLELKEQLDLKSNEVNEEKRKLADSNNEEKNLKQNLELIELKSQLQHIESEISRLDVQNAEAERDKYQEESLRLRTRFEKLSSENAGKLGEMKQLQNQIDSLTHQLRTDYKDIEKNYHKEWVELQTRSFVTDDIDVYSKALDSAIMKYHGLKMQDINRIIDELWKRTYSGTDIDTIKIRSDEVSSTVKGKSYNYRVVMYKQDVELDMRGRCSAGQKVLASIIIRLALSETFGANCGVIALDEPTTNLDEENIESLAKSLHNIINMRRHQKNFQLIVITHDEKFLGHMNAAAFTDHFFKVKRDDRQKSQIEWVDINRVTY | binds
Rad50^K81I-hemagglutinin (HA) (protein, UniProt P12753 1-1312) MSAIYKLSIQGIRSFDSNDRETIEFGKPLTLIVGMNGSGKTTIIECLKYATTGDLPPNSKGGVFIHDPKITGEKDIRAQVILAFTSANGLNMIVTRNIQLLMKKTTTTFKTLEGQLVAINNSGDRSTLSTRSLELDAQVPLYLGVPKAILEYVIFCHQEDSLWPLSEPSNLKKKFDEIFQAMKFTKALDNLKSIKKDMSVDIKLLKQSVEHLKLDKDRSKAMKLNIHQLQTKIDQYNEEVSEIESQLNEITEKSDKLFKSNQDFQKILSKVENLKNTKLSISDQVKRLSNSIDILDLSKPDLQNLLANFSKVLMDKNNQLRDLETDISSLKDRQSSLQSLSNSLIRRQGELEAGKETYEKNRNHLSSLKEAFQHKFQGLSNIENSDMAQVNHEMSQFKAFISQDLTDTIDQFAKDIQLKETNLSDLIKSITVDSQNLEYNKKDRSKLIHDSEELAEKLKSFKSLSTQDSLNHELENLKTYKEKLQSWESENIIPKLNQKIEEKNNEMIILENQIEKFQDRIMKTNQQADLYAKLGLIKKSINTKLDELQKITEKLQNDSRIRQVFPLTQEFQRADLEMDFQKLFINMQKNIAINNKKMHELDRRYTNALYNLNTIEKDLQDNQKSKEKVIQLLSENLPEDCTIDEYNDVLEETELSYKTALENLKMHQTTLEFNRKALEIAERDSCCYLCSRKFENESFKSKLLQELKTKTDANFEKTLKDTVQNEKEYLHSLRLLEKHIITLNSINEKIDNSQKCLEKAKEETKTSKSKLDELEVDSTKLKDEKELAESEIRPLIEKFTYLEKELKDLENSSKTISEELSIYNTSEDGIQTVDELRDQQRKMNDSLRELRKTISDLQMEKDEKVRENSRMINLIKEKELTVSEIESSLTQKQNIDDSIRSKRENINDIDSRVKELEARIISLKNKKDEAQSVLDKVKNERDIQVRNKQKTVADINRLIDRFQTIYNEVVDFEAKGFDELQTTIKELELNKAQMLELKEQLDLKSNEVNEEKRKLADSNNEEKNLKQNLELIELKSQLQHIESEISRLDVQNAEAERDKYQEESLRLRTRFEKLSSENAGKLGEMKQLQNQIDSLTHQLRTDYKDIEKNYHKEWVELQTRSFVTDDIDVYSKALDSAIMKYHGLKMQDINRIIDELWKRTYSGTDIDTIKIRSDEVSSTVKGKSYNYRVVMYKQDVELDMRGRCSAGQKVLASIIIRLALSETFGANCGVIALDEPTTNLDEENIESLAKSLHNIINMRRHQKNFQLIVITHDEKFLGHMNAAAFTDHFFKVKRDDRQKSQIEWVDINRVTY | binds
